A short description of this data set: general procedure: solution-phase peptide synthesis; EDC.HCl/HONb/DIPEA; HOBt. To be noted: for crude HPLC purity: UV 220 nm (HPLC method 2).
Setting [1] is: late stage modification step, HPLC.

Square brackets hold non-standard residues; d marks the D form. * marks the point of attachment. dOrn = NCCC[C@@H](N)C(=O)O; Orn = NCCC[C@H](N)C(=O)O; Boc = CC(C)(C)OC(=O)*; Acm = CC(=O)NC*

As to “Ac-D-Cys(Trt)-D-Ala-D-Arg-D-Arg-D-Arg-D-Ala-D-Arg-NH2. 4HCl”, where the note is “coupling step, HPLC”, the “final HPLC purity” value was “greater than 99 Area %”. Besides, for the setting “coupling step”, the “crude HPLC purity” value was found to be 86.7% RS. Besides, the step yield (purification step) amounted to 64%.

Consider “Ac-D-Cyst(Acm)-D-Ala-D-Arg(Boc)2-D-Arg(Boc)2-D-Arg(Boc)2-D-Ala-D-Arg(Boc)2-NH2”, for which the step yield (late stage modification step) turned out to be 31%. Also, under setting [1], the “final HPLC purity” value was 94.9%.

On to “Ac-[dC](Acm)[dA][dOrn](Boc)[dOrn](Boc)[dOrn](Boc)[dA][Orn](Boc)-NH2”, for which the step yield (late stage modification step) was 73%. The “final HPLC purity” value under setting [1] is listed as 96.3%.

For “Ac-[dC](Acm)[dA][dOrn](Boc)[dOrn](Boc)[dOrn](Boc)[dA][Orn](Boc)-OMe”, the step yield (coupling step) came out at 62%. Moreover, the “final HPLC purity” value (coupling step, HPLC) stood at 99%.

As to Etelcalcetide, the step yield is on record as 53% (late stage modification step) and above 90% (purification step). Besides, the “final HPLC purity” value (late stage modification step, UPLC UV 220 nm) is above 95% RS. In addition, under “late stage modification step”, the “crude HPLC purity” value came to 60% RS.

H-(D)Arg-(D)Arg-(D)Ala-(D)Arg-NH2.4HCl displayed a step yield (coupling step, 4HCl) of 74.5%. In addition, the “purity (crude or final not stated)” value (coupling step, HPLC, 4HCl) is 94.1%.

As to “Z-D-Orn(Boc)-D-Orn(Boc)-D-Ala-Orn(Boc)-OMe”, under “coupling step”, the step yield was found to be 81%. The “final HPLC purity” value (coupling step, HPLC) was found to be 99%.

These data come from patent US10858389 (dated 2020).
